{"source": "PubChem BioAssay AID504744 (Drosophila RNAi Screening Center, 2011)", "aim": "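Identify dsRNAs that increase or decrease phospho-dAkt after insulin treatment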 (primary screen)", "cell system": "Drosophila Kc167 cells", "reagents": "long dsRNA against Drosophila genes, 250 ng dsRNA per well of a 384-well plate", "time to read-out": "3 days of knock-down, then overnight serum-free starvation before stimulation", "conditions": "bovine insulin at 387 nM for 10 minutes after 12 h without serum", "detection": "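In-cell antibody fluorescence for phospho-dAkt in each well over DNA-dye signal, with log2 residuals expressed as z-scores adjusted for cell count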", "hit rule": "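Hit in the insulin screen when the two-replicate mean z-score is more extreme than plus or minus 2.5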", "note": "In all, the deposit lists about 23,000 reagents; shown is a random part of those with a known target gene and a result. In the full data, 98 (0.43%) got an active call. 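Only hit calls are given; the phospho-dAkt signals, z-scores and hit direction were not deposited.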 A plus sign joins genes that one reagent is predicted to hit. No sequences are given here."}
{"target": "CHES-1-like", "dsRNA": "DRSC18447", "Outcome": "inactive"}
{"target": "CG31550", "dsRNA": "DRSC12197", "Outcome": "inactive"}
{"target": "CG31550", "dsRNA": "DRSC12198", "Outcome": "inactive"}
{"target": "CG11560", "dsRNA": "DRSC09843", "Outcome": "inactive"}
{"target": "CG7084", "dsRNA": "DRSC16194", "Outcome": "inactive"}
{"target": "CG5646", "dsRNA": "DRSC15853", "Outcome": "inactive"}
{"target": "CG5938", "dsRNA": "DRSC15923", "Outcome": "inactive"}
{"target": "CG11417", "dsRNA": "DRSC18581", "Outcome": "inactive"}
{"target": "Pxt", "dsRNA": "DRSC17040", "Outcome": "inactive"}
{"target": "Det", "dsRNA": "DRSC14489", "Outcome": "inactive"}
{"target": "eIF4A", "dsRNA": "DRSC03526", "Outcome": "active"}
{"target": "eIF2Bbeta", "dsRNA": "DRSC18465", "Outcome": "inactive"}
{"target": "CG42560 + CG42559", "dsRNA": "DRSC21873", "Outcome": "inactive"}
{"target": "CG14417", "dsRNA": "DRSC18638", "Outcome": "inactive"}
{"target": "CG7222", "dsRNA": "DRSC07019", "Outcome": "inactive"}
{"target": "CG13042", "dsRNA": "DRSC09923", "Outcome": "inactive"}
{"target": "nAChRalpha6", "dsRNA": "DRSC01096", "Outcome": "inactive"}
{"target": "nAChRalpha6", "dsRNA": "DRSC02738", "Outcome": "inactive"}
{"target": "Arfip", "dsRNA": "DRSC15179", "Outcome": "inactive"}
{"target": "CG17472", "dsRNA": "DRSC02622", "Outcome": "inactive"}

Active calls (from the list above):
{"target": "eIF4A", "dsRNA": "DRSC03526", "Outcome": "active"}

More results follow.
{"target": "CG9541", "dsRNA": "DRSC03257", "Outcome": "inactive"}
{"target": "veli", "dsRNA": "DRSC16276", "Outcome": "inactive"}
{"target": "AkhR", "dsRNA": "DRSC03329", "Outcome": "inactive"}
{"target": "Polr3E", "dsRNA": "DRSC11880", "Outcome": "inactive"}
{"target": "CG32055", "dsRNA": "DRSC10666", "Outcome": "inactive"}
{"target": "RpS21", "dsRNA": "DRSC00833", "Outcome": "inactive"}
{"target": "Ir7b", "dsRNA": "DRSC18009", "Outcome": "inactive"}
{"target": "sdk", "dsRNA": "DRSC18831", "Outcome": "inactive"}
{"target": "CG13516", "dsRNA": "DRSC04159", "Outcome": "inactive"}
{"target": "CG15370", "dsRNA": "DRSC18042", "Outcome": "inactive"}
{"target": "IKKbeta", "dsRNA": "DRSC16714", "Outcome": "inactive"}
{"target": "zfh2", "dsRNA": "DRSC17178", "Outcome": "active"}
{"target": "CG2889", "dsRNA": "DRSC18236", "Outcome": "inactive"}
{"target": "br", "dsRNA": "DRSC17691", "Outcome": "inactive"}
{"target": "br", "dsRNA": "DRSC17789", "Outcome": "inactive"}
{"target": "br", "dsRNA": "DRSC18743", "Outcome": "inactive"}
{"target": "br", "dsRNA": "DRSC18744", "Outcome": "inactive"}
{"target": "CG11790", "dsRNA": "DRSC14390", "Outcome": "inactive"}
{"target": "Ppa", "dsRNA": "DRSC04598", "Outcome": "inactive"}
